This is an account of results in publication PMC12987569.

No constants are given. Whether binding was seen depends on the method and setting. Binding seen in cells or lysates may run through a third protein. Some entries that bind do so weakly or less than the wild type.

The target of the assay is T1, PLIN3 (human (in human CRC cells)) (UniProt O60664).
T1 sequence: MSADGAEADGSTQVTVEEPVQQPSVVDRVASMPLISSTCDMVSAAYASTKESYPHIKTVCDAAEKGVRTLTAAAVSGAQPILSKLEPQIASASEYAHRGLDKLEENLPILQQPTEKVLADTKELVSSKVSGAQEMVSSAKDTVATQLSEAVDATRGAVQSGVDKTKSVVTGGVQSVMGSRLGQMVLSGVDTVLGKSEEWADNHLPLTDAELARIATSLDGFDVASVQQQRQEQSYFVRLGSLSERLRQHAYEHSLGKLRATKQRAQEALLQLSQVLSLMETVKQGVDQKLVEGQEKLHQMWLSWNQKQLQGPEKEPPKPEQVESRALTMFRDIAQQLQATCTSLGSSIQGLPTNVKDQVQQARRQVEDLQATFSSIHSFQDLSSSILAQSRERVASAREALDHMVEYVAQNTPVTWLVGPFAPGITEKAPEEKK
Description: co-IP; co-immunoprecipitation from CRC cells treated with oleic acid (OA); which protein was precipitated is not told.

B1: YTH domain-containing family protein 3 (protein, UniProt Q7Z739 1-585)
chain: MSATSVDQRPKGQGNKVSVQNGSIHQKDAVNDDDFEPYLSSQTNQSNSYPPMSDPYMPSYYAPSIGFPYSLGEAAWSTAGDQPMPYLTTYGQMSNGEHHYIPDGVFSQPGALGNTPPFLGQHGFNFFPGNADFSTWGTSGSQGQSTQSSAYSSSYGYPPSSLGRAITDGQAGFGNDTLSKVPGISSIEQGMTGLKIGGDLTAAVTKTVGTALSSSGMTSIATNSVPPVSSAAPKPTSWAAIARKPAKPQPKLKPKGNVGIGGSAVPPPPIKHNMNIGTWDEKGSVVKAPPTQPVLPPQTIIQQPQPLIQPPPLVQSQLPQQQPQPPQPQQQQGPQPQAQPHQVQPQQQQLQNRWVAPRNRGAGFNQNNGAGSENFGLGVVPVSASPSSVEVHPVLEKLKAINNYNPKDFDWNLKNGRVFIIKSYSEDDIHRSIKYSIWCSTEHGNKRLDAAYRSLNGKGPLYLLFSVNGSGHFCGVAEMKSVVDYNAYAGVWSQDKWKGKFEVKWIFVKDVPNNQLRHIRLENNDNKPVTNSRDTQEVPLEKAKQVLKIIATFKHTTSIFDDFAHYEKRQEEEEAMRRERNRNKQ
Consider B1, for which the binding entry was “binds”.
